In article doi:10.1101/2020.03.19.998880 one finds binding data, which are given here for three molecules.

What all share (assay): two-hybrid
The target in experiment [1] is INCENP (WYRD), yeast two-hybrid fusion (Arabidopsis thaliana).
For experiment [2], the target named is INCENP C-terminal region, yeast two-hybrid fusion (Arabidopsis thaliana).
Experiment [3] deals with INCENP^F1745A, yeast two-hybrid fusion (Arabidopsis thaliana).
In experiment [4] the target is INCENP^W1723G, yeast two-hybrid fusion (Arabidopsis thaliana).

These are yes or no findings as the source states them, for the method shown. For part of these data: Binding can be weak; no strength is given. Tags and fused reporters may be left off the sequences shown.

B1: AUR3 (Aurora 3), yeast two-hybrid fusion (enzyme, UniProt O64629 1-288)
chain: MSKKSTESDAGNTEKQWSLADFEIGRPLGKGKFGRVYLAREAKSKYIVALKVIFKEQIEKYKIHHQLRREMEIQTSLRHPNILRLFGWFHDNERIFLILEYAHGGELYGVLKQNGHLTEQQAATYIASLSQALAYCHGKCVIHRDIKPENLLLDHEGRLKIADFGWSVQSSNKRKTMCGTLDYLAPEMVENRDHDYAVDNWTLGILCYEFLYGNPPFEAESQKDTFKRILKIDLSFPLTPNVSEEAKNLISQLLVKDPSKRLSIEKIMQHPWIVKNADPKGVCASIDI
As for B1, the binding entry in experiment [1] is “binds”; in experiment [2], “binds”; in experiment [3], “binds”; in experiment [4], “no binding”.

B2: AUR2, yeast two-hybrid fusion (enzyme, UniProt Q683C9 1-282)
chain: MLYQAASEAAQKRWTTSDFDIGKPLGRGKFGHVYLAREKRSDHIVALKVLFKAQLQQSQVEHQLRREVEIQSHLRHPNILRLYGYFYDQKRVYLILEYAVRGELYKELQKCKYFSERRAATYVASLARALIYCHGKHVIHRDIKPENLLIGAQGELKIADFGWSVHTFNRRRTMCGTLDYLPPEMVESVEHDASVDIWSLGILCYEFLYGVPPFEAREHSETYKRIVQVDLKFPPKPIVSSSAKDLISQMLVKESTQRLALHKLLEHPWIVQNADPSGLYRG
On to B2, for which the binding entry in experiment [1] is “no binding”.

B3: AUR1, yeast two-hybrid fusion (enzyme, UniProt Q9M077 1-294)
chain: MAIPTETQHQEKEASDASAAAAQKRWTLSDFDIGKPLGRGKFGHVYLAREKRSNHVVALKVLFKSQLQQSQVEHQLRREVEIQSHLRHPNILRLYGYFYDQKRVYLILEYAARGELYKDLQKCKYFSERRAATYVASLARALIYCHGKHVIHRDIKPENLLIGAQGELKIADFGWSVHTFNRRRTMCGTLDYLPPEMVESVEHDASVDIWSLGILCYEFLYGVPPFEAMEHSDTYRRIVQVDLKFPPKPIISASAKDLISQMLVKESSQRLPLHKLLEHPWIVQNADPSGIYRV
On to B3, for which, in experiment [1], the binding entry is given as “no binding”.
